Among the data in ChEMBL document CHEMBL1121793, “Biological effects of modified colchicines. Improved preparation of 2-demethylcolchicine, 3-demethylcolchicine, and (+)-colchicine and reassignment of the position of the double bond in dehydro-7-deacetamidocolchicines” (J Med Chem, 1981) are Toxicity and Potency values, retold here.

The species named for assay [1] is Mus musculus. As to the kind of experiment: Dose of compound which caused an average weight loss >3g in a set of mice or the death of one or more of the mice in the set in the P388 NCI screen. In kind it is functional. The method in brief:
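P388 leukemia-bearing mice, 20–22 g; one im injection daily for 9 days, compound in hydroxypropylcellulose suspension or aqueous solution. Toxic dose = lowest dose level at which ≥1 mouse died on or by day 5, or group mean weight loss >3 g; converted to μmol/kg.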

Assay [2] relates to P388. The conditions noted are these: Mus musculus.
The subject of assay [3] is P388. As to the kind of experiment: The compound was tested for its potency against lymphocytic leukemia P388 screen in mice. Format: functional, Mus musculus.

Calls of active or inactive are those of the source. The calls are words filed in the database; no cut-off is given here.

In assay [1], `COc1cc2c(c(OC)c1OC)-c1ccc(OC)c(=O)cc1[C@@H](N)CC2` [DEACETYLCOLCHICINE] returned a Toxicity of 28 µM/kg. In addition, the Potency entry in assay [2] is “inactive”.

As for `COc1c(O)cc2c(c1OC)-c1ccc(OC)c(=O)cc1[C@@H](NC(C)=O)CC2` [3-DESMETHYLCOLCHICIN], the Toxicity in assay [1] was determined as 26 µM/kg. In addition, in assay [3], the Potency stood at 3.6 µM/kg.
